Results as given in the supplement of paper PMC10849652.
Some of the results follow.

Protein sequences, listed by entry. Tags and fused reporters are not part of them. Lines headed by an entry give the natural chain unless they say otherwise; changes in a name come on top.
UniProt O00505, whole entry, looked up: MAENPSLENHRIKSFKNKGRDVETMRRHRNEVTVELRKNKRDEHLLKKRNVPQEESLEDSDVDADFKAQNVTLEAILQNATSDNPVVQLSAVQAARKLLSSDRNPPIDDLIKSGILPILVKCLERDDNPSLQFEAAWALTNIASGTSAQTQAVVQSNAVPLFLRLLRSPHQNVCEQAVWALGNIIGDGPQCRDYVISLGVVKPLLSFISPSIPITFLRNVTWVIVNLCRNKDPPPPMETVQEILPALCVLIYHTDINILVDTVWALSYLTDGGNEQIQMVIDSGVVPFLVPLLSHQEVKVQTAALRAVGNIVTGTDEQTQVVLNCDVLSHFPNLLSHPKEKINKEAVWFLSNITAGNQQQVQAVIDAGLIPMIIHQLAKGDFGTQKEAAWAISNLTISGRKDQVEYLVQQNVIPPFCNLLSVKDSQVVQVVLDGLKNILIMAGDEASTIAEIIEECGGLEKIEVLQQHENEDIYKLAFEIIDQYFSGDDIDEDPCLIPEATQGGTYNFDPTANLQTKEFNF
UniProt Q92615, whole entry, looked up: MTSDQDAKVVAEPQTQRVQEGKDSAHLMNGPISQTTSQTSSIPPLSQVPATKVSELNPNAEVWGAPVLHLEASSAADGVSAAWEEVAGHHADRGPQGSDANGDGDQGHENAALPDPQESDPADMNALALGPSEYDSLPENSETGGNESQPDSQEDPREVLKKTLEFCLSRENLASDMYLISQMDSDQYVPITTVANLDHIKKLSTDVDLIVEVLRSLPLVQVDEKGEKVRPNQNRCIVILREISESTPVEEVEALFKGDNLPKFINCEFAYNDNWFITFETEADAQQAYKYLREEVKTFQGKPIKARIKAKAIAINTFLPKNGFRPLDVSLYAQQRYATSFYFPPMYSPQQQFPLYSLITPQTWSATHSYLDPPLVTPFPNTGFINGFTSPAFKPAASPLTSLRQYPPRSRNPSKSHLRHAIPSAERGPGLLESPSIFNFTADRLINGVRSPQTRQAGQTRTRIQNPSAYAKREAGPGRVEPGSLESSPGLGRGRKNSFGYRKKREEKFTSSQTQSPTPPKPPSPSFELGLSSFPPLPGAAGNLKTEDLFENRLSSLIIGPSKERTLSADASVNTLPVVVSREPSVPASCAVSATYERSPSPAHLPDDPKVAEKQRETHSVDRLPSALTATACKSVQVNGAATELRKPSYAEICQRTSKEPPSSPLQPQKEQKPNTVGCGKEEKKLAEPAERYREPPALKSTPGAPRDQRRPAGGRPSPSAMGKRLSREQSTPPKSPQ
UniProt Q9H9P8: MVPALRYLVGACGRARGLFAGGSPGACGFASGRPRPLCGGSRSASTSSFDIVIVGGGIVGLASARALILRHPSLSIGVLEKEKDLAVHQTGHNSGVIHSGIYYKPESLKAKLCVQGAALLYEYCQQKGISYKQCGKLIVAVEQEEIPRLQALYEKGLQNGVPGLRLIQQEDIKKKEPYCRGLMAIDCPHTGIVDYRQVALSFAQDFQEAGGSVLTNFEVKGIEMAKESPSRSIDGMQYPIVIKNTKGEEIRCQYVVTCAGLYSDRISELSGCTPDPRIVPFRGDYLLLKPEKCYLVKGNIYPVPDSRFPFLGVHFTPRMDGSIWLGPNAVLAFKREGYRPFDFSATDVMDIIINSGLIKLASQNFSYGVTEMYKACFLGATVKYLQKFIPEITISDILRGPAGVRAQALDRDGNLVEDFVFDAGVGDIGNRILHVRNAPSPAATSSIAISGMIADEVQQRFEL
UniProt Q9NQT8: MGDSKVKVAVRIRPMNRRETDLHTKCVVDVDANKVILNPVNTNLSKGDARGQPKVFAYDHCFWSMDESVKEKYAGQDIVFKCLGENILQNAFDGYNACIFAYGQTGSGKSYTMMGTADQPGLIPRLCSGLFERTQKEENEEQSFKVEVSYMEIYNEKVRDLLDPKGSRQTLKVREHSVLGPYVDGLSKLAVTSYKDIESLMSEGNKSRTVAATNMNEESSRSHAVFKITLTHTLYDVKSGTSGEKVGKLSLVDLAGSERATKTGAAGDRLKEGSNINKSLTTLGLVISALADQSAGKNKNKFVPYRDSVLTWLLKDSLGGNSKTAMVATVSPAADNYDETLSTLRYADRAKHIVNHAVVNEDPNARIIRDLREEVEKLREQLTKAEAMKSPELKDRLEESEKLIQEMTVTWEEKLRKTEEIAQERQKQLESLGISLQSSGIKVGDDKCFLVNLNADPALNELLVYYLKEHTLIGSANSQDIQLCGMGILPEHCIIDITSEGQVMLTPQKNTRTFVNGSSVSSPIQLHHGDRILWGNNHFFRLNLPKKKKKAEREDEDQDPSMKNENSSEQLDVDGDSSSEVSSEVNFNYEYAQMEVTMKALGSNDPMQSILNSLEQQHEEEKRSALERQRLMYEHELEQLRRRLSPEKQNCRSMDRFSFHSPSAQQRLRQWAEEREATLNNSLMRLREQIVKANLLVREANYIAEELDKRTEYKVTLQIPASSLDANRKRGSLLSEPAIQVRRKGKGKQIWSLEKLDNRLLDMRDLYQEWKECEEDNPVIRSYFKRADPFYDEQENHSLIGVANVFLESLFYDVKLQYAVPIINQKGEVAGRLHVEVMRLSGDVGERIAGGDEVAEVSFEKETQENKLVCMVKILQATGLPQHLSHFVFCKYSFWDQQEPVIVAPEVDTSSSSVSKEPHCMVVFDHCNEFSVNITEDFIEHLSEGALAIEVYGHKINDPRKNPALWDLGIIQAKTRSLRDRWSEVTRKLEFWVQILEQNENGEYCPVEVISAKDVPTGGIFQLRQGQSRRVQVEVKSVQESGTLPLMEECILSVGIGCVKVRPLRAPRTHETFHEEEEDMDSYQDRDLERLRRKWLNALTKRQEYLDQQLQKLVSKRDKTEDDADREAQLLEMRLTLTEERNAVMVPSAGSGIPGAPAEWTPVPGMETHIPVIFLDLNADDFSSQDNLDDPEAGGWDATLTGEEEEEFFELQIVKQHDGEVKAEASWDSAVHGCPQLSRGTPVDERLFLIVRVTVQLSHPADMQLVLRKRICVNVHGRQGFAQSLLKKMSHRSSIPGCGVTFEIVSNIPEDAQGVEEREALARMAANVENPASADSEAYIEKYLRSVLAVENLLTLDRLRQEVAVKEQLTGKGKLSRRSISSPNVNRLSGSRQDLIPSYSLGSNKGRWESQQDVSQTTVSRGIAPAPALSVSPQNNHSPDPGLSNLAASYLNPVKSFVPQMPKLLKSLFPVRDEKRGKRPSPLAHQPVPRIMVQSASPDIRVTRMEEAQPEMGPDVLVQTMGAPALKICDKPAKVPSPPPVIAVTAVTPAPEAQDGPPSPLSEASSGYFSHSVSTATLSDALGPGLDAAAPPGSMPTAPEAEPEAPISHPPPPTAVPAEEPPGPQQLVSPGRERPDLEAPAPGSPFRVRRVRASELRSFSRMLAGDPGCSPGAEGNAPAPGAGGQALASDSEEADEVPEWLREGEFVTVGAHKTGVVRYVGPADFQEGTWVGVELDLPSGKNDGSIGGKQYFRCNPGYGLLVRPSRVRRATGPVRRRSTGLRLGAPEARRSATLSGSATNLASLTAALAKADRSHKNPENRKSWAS
UniProt P41229: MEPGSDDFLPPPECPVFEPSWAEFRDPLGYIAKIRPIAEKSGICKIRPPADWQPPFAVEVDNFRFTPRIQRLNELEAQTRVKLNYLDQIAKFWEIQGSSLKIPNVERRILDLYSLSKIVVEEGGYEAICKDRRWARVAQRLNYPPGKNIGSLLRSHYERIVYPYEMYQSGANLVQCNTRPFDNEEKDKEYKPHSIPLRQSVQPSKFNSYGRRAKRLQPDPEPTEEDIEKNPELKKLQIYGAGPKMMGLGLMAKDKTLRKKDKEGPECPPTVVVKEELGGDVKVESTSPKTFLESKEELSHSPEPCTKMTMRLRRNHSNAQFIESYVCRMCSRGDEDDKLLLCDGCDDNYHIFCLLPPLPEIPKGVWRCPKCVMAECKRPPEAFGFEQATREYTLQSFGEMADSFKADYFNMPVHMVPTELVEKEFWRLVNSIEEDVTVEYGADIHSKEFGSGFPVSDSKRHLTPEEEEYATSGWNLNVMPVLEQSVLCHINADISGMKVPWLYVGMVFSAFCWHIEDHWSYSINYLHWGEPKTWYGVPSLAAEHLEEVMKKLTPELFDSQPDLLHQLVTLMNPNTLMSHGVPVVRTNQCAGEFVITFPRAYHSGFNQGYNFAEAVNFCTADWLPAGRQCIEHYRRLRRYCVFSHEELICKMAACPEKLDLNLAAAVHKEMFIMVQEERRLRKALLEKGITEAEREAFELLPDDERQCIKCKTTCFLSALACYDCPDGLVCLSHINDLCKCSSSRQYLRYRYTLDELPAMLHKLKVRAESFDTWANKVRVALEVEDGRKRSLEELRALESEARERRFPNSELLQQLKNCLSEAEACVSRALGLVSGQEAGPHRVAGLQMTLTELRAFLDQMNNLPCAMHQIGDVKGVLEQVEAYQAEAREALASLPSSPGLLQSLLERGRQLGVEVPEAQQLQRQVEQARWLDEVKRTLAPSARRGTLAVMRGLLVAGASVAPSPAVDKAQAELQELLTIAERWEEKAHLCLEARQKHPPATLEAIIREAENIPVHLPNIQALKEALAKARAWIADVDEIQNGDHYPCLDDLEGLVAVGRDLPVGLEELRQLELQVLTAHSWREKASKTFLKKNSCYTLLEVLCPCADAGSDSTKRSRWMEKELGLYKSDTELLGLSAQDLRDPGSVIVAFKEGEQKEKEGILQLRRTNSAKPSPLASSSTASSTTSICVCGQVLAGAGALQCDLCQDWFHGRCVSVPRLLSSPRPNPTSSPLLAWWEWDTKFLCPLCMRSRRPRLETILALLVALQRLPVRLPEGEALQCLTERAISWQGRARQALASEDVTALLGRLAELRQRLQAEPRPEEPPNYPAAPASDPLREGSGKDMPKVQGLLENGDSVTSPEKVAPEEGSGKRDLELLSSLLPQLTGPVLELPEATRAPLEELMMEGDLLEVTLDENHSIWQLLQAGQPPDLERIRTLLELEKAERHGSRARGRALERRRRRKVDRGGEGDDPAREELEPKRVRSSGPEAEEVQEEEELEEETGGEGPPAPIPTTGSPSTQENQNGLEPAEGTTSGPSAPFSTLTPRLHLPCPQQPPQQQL
UniProt Q9P206: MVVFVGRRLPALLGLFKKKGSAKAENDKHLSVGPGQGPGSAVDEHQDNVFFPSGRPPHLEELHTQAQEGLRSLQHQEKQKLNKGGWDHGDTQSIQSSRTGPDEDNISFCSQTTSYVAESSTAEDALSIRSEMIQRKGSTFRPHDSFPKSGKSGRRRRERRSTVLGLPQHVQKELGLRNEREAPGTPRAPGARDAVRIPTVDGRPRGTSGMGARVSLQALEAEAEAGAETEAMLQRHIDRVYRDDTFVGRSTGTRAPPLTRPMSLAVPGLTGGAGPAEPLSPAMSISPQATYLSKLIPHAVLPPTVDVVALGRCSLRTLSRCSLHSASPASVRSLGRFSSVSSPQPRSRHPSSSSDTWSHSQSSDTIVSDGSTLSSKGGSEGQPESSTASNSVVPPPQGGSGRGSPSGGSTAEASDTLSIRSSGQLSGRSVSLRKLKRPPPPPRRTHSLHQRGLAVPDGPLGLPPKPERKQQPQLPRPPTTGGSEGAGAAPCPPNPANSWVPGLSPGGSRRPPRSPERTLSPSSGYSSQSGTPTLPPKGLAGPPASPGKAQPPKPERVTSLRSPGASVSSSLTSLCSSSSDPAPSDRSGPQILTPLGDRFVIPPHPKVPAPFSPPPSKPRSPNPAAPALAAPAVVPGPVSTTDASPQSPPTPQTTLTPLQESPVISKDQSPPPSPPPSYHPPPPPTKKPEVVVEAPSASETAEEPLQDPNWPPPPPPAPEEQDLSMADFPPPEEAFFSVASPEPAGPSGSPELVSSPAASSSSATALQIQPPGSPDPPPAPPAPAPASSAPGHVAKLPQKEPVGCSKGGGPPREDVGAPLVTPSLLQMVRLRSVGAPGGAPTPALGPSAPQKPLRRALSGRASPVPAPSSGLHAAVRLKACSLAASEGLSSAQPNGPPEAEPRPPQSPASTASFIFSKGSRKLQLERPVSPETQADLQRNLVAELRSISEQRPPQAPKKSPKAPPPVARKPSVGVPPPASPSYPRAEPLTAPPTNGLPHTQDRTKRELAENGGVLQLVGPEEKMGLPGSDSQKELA
UniProt Q6IAA8, whole entry, looked up: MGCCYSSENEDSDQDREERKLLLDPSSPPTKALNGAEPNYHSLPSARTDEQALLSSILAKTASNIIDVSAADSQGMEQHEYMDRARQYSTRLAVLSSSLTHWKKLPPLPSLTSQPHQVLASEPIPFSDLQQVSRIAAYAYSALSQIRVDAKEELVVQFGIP
UniProt Q9Y2Q5, whole entry, looked up: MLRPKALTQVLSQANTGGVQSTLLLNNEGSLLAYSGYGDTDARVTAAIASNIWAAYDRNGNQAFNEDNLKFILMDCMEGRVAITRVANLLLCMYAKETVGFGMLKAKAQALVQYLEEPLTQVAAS

Columns and labels:
Assay in all cases: log2 fold change, soluble protein after heating vs DMSO (PISA); higher = thermal stabilisation; K562 lysate, 10 uM; active = over 0.2 and 3.5 SD of the protein, either way, in both replicates (recomputed)
[1] = compound: C#Cc1cccc(Nc2ncnc3cc(OCCOC)c(OCCOC)cc23)c1 [erlotinib]
How it was run: (§1)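 A 30 min treatment with 10 μM compound was applied to crude K562 extract at 1 mg/mL protein in PBS pH 7.4 with 1 mM MgCl2. Heating for 3 min spanned 48°C-58°C, after which aliquots were pooled, adjusted to 0.5% NP-40 at 4°C and spun at 21,000xg for 90 min. TMTpro 16plex LC-MS/MS of the supernatant, with channel sums equalised, gave values recorded as log-two fold change in thermal stability against solvent controls, from duplicates.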

[2] = compound: C/C(=N\NC(=O)C1=CC(=CC=C1)S(=O)(=O)N2CCOCC2)/C3=C(C=CC(=C3)Cl)O
How it was run: as §1

[3] = compound: C1=CC(=CC=C1C2=NC3=C(N2)C=C(C=C3)C(=O)N)OC4=CC=C(C=C4)Cl
How it was run: as §1

[4] = compound: C1=CC2=C(C=CC(=C2)/C=C\3/C(=O)NC(=NCC4=CC=CS4)S3)N=C1
How it was run: as §1

[5] = compound: C1=CC2=NC=CN=C2C=C1/C=C/3\C(=O)NC(=O)S3
How it was run: as §1

[6] = compound: C1=CC=C(C=C1)C2=NC(=C(N2)C3=CC=NC=C3)C4=CC(=C(C=C4)Cl)O
How it was run: as §1

[7] = compound: C1=CC=C2C(=C1)C3=NNC4=CC=CC(=C43)C2=O
How it was run: as §1

[8] = compound: C1CCN(C1)C(=O)NC2=CC=CC(=C2)NC3=NC=C(C(=N3)NCCC4=CN=CN4)Br
How it was run: as §1

[9] = compound: C1CN(CCC1(CC2=CC=C(C=C2)Cl)N)C3=NC=NC4=C3C=CN4
How it was run: as §1

[10] = compound: C1COCCN1CCN2C3=CC=CC=C3N=C2NC(=O)C4=CC(=CC=C4)[N+](=O)[O-] [IRAK-1-4 Inhibitor I]
How it was run: as §1

[11] = compound: C=CC(=O)N1CCC[C@@H](n2nc(-c3ccc(Oc4ccccc4)cc3)c3c(N)ncnc32)C1 [ibrutinib]
How it was run: as §1

[12] = compound: CC(=O)c1cnc2ccc(-c3cc(Cl)c(O)c(Cl)c3)nc2c1N[C@H]1CC[C@H](CN(C)C)CC1
How it was run: as §1

[13] = compound: CC(C)(C)Cn1c(N)nc2ccc(-c3[nH]c(C(C)(C)C)nc3-c3ccc(F)cc3)nc21 [ralimetinib]
How it was run: as §1

[14] = compound: CC(C)(O)CC(=O)NCCn1ccc2ncnc(Nc3ccc(Oc4cccc(C(F)(F)F)c4)c(Cl)c3)c21
How it was run: as §1

[15] = compound: CC(C)C1=C2N=C(C=C(N2N=C1)NCC3=CC=CC=C3)NCCCCCCN
How it was run: as §1

[16] = compound: CC1=C(C(CC(=O)N1)C2=CC=C(C=C2)C(F)(F)F)C(=O)NC3=C(C=C4C(=C3)C=NN4)F
How it was run: as §1

[17] = compound: CC1=C(C2=C(C=C1)C(=O)C3=CC=CC=C3N2CCCN)C
How it was run: as §1

[18] = compound: CC1=C(C=C(C=C1)NC(=O)C2=CC(=CC=C2)C(C)(C)C#N)NC3=CC4=C(C=C3)N=CN(C4=O)C
How it was run: as §1

[19] = compound: CC1=C(C=C(C=C1)NC(=O)C2=CC(=CC=C2)N(C)C)NC(=O)C3=CC=C(C=C3)O
How it was run: as §1

[20] = compound: CC1=CC=C(C=C1)SC2=C3C=C(SC3=CN=C2)C(=O)N
How it was run: as §1

Measured: log2 fold change

KNOP1 (UniProt Q1ED39)
inactive: [1] -0.018 | [2] -0.011 | [3] -0.006 | [4] -0.176 | [5] 0.019 | [6] 0.008 | [7] 0.109 | [8] -0.128 | [9] 0.118 | [10] 0.123 | [11] -0.079 | [12] -0.096 | [13] -0.096 | [14] -0.133 | [15] -0.031 | [16] 0.052 | [17] -0.114 | [18] 0.155 | [19] -0.033 | [20] -0.118

KPNA3 (UniProt O00505)
inactive: [1] 0 | [2] -0.011 | [3] 0.019 | [4] -0.08 | [5] -0.049 | [6] 0.043 | [7] 0.007 | [8] -0.015 | [9] 0.083 | [10] -0.004 | [11] -0.003 | [12] -0.015 | [13] 0.034 | [14] -0.062 | [15] -0.068 | [16] -0.013 | [17] -0.052 | [18] 0.039 | [19] -0.013 | [20] 0.012

KLC4 isoform 3 (UniProt Q9NSK0)
inactive: [1] 0 | [2] -0.017 | [3] 0.05 | [4] 0 | [5] 0 | [6] 0.018 | [7] -0.029 | [8] -0.056 | [9] 0.007 | [10] -0.021 | [11] -0.007 | [12] 0.012 | [13] 0.008 | [14] -0.023 | [15] -0.024 | [16] -0.018 | [17] 0.009 | [18] 0.019 | [19] -0.001 | [20] 0.003

LARP4B (UniProt Q92615)
inactive: [1] -0.019 | [2] 0.013 | [3] -0.027 | [4] -0.005 | [5] 0.009 | [6] -0.021 | [7] 0.033 | [8] 0.012 | [9] -0.033 | [10] -0.025 | [11] 0 | [12] 0.005 | [13] 0.055 | [14] 0.069 | [15] -0.02 | [16] -0.006 | [17] 0.03 | [18] -0.094 | [19] 0.037 | [20] 0.014

L2HGDH (UniProt Q9H9P8)
inactive: [1] -0.022 | [2] 0.02 | [3] -0.01 | [4] -0.032 | [5] 0.027 | [6] -0.037 | [7] 0.076 | [8] -0.02 | [9] -0.03 | [10] 0.018 | [11] 0.006 | [12] 0.041 | [13] 0.025 | [14] 0.016 | [15] -0.036 | [16] 0.041 | [17] 0.03 | [18] -0.017 | [19] -0.014 | [20] 0.027

KIDINS220 isoform 4 (UniProt Q9ULH0)
inactive: [1] -0.019 | [2] 0.031 | [3] -0.013 | [4] 0.02 | [5] -0.01 | [6] -0.033 | [7] -0.055 | [8] -0.035 | [9] 0.061 | [10] 0.018 | [11] 0.023 | [12] 0.069 | [13] 0.04 | [14] -0.044 | [15] -0.008 | [16] -0.019 | [17] -0.01 | [18] 0.022 | [19] 0.034 | [20] -0.008

Reprinted from the results shown (two entries):
LARP4B (UniProt Q92615)
inactive: [1] -0.019 | [2] 0.013 | [3] -0.027 | [4] -0.005 | [5] 0.009 | [6] -0.021 | [7] 0.033 | [8] 0.012 | [9] -0.033 | [10] -0.025 | [11] 0 | [12] 0.005 | [13] 0.055 | [14] 0.069 | [15] -0.02 | [16] -0.006 | [17] 0.03 | [18] -0.094 | [19] 0.037 | [20] 0.014

L2HGDH (UniProt Q9H9P8)
inactive: [1] -0.022 | [2] 0.02 | [3] -0.01 | [4] -0.032 | [5] 0.027 | [6] -0.037 | [7] 0.076 | [8] -0.02 | [9] -0.03 | [10] 0.018 | [11] 0.006 | [12] 0.041 | [13] 0.025 | [14] 0.016 | [15] -0.036 | [16] 0.041 | [17] 0.03 | [18] -0.017 | [19] -0.014 | [20] 0.027

(next part)

KIF13B (UniProt Q9NQT8)
inactive: [1] 0.025 | [2] 0.042 | [3] 0.001 | [4] -0.038 | [5] -0.026 | [6] -0.034 | [7] -0.064 | [8] -0.011 | [9] -0.005 | [10] 0.031 | [11] 0.044 | [12] 0.021 | [13] 0.023 | [14] -0.128 | [15] 0.018 | [16] -0.026 | [17] -0.046 | [18] -0.064 | [19] -0.037 | [20] -0.02

KDM5C (UniProt P41229)
inactive: [1] 0.052 | [2] 0.017 | [3] 0.022 | [4] -0.059 | [5] -0.009 | [6] -0.041 | [7] -0.031 | [8] -0.053 | [9] -0.002 | [10] 0.01 | [11] 0.089 | [12] -0.132 | [13] 0.005 | [14] -0.02 | [15] 0.015 | [16] 0.01 | [17] 0.012 | [18] -0.013 | [19] 0.031 | [20] 0.001

KIFC1 (UniProt Q9BW19)
inactive: [1] 0.003 | [2] 0.061 | [3] 0.011 | [4] -0.002 | [5] -0.048 | [6] 0.011 | [7] -0.012 | [8] -0.009 | [9] 0.025 | [10] -0.023 | [11] 0.021 | [12] -0.002 | [13] -0.025 | [14] 0.007 | [15] -0.012 | [16] -0.009 | [17] 0.004 | [18] 0.002 | [19] 0.011 | [20] 0.002

KIAA1522 isoform 2 (UniProt Q9P206)
inactive: [1] 0.037 | [2] -0.173 | [3] 0.057 | [4] -0.071 | [5] -0.015 | [6] 0.017 | [7] 0.033 | [8] -0.007 | [9] -0.014 | [10] -0.056 | [11] 0.013 | [12] -0.015 | [13] 0.014 | [14] 0.01 | [15] 0.005 | [16] 0.026 | [17] -0.026 | [18] 0.037 | [19] 0.026 | [20] -0.007

KPNA1 (UniProt P52294)
inactive: [1] 0.032 | [2] 0.009 | [3] -0.012 | [4] 0.014 | [5] 0.021 | [6] 0.01 | [7] -0.022 | [8] -0.037 | [9] -0.021 | [10] -0.002 | [11] 0.005 | [12] -0.008 | [13] -0.002 | [14] 0.003 | [15] -0.014 | [16] 0.018 | [17] 0.014 | [18] -0.004 | [19] 0 | [20] 0.012

LAMTOR1 (UniProt Q6IAA8)
inactive: [1] 0.025 | [2] -0.018 | [3] -0.055 | [4] -0.012 | [5] -0.078 | [6] -0.023 | [7] 0.013 | [8] 0.014 | [9] 0.049 | [10] 0.035 | [11] 0.053 | [12] -0.063 | [13] 0.001 | [14] -0.036 | [15] -0.009 | [16] 0.008 | [17] -0.09 | [18] 0.023 | [19] 0.025 | [20] 0.039

LAMTOR2 (UniProt Q9Y2Q5)
inactive: [1] 0.03 | [2] -0.03 | [3] -0.007 | [4] 0.032 | [5] -0.011 | [6] -0.038 | [7] -0.024 | [8] -0.05 | [9] 0.021 | [10] 0.05 | [11] 0.002 | [12] -0.087 | [13] 0 | [14] -0.038 | [15] -0.009 | [16] -0.039 | [17] -0.014 | [18] 0.058 | [19] 0.026 | [20] 0.055

KIF4B (UniProt Q2VIQ3)
inactive: [1] -0.018 | [2] -0.035 | [3] -0.017 | [4] 0.032 | [5] -0.005 | [6] 0.034 | [7] 0.004 | [8] -0.003 | [9] -0.027 | [10] -0.061 | [11] 0.027 | [12] 0.005 | [13] 0.004 | [14] -0.03 | [15] 0.013 | [16] 0.04 | [17] -0.018 | [18] 0.01 | [19] 0.002 | [20] -0.036

KLF16 (UniProt Q9BXK1)
inactive: [1] 0.134 | [2] -0.303 | [3] -0.078 | [4] -0.08 | [5] 0.019 | [6] 0.03 | [7] -0.033 | [8] 0.216 | [9] -0.081 | [10] 0.06 | [11] 0.071 | [12] -0.03 | [13] -0.054 | [14] -0.093 | [15] -0.045 | [16] 0.034 | [17] 0.047 | [18] 0.139 | [19] -0.001 | [20] -0.031

KIF22 (UniProt Q14807)
inactive: [1] 0.012 | [2] -0.074 | [3] 0.076 | [4] -0.147 | [5] -0.007 | [6] -0.063 | [7] -0.123 | [8] 0.026 | [9] 0.05 | [10] 0.06 | [11] 0.012 | [12] -0.02 | [13] 0.006 | [14] -0.27 | [15] 0.028 | [16] 0.016 | [17] -0.142 | [18] 0.143 | [19] -0.027 | [20] -0.117
